From PMC8632972
Results are given in words; binding and its absence hold for the method and conditions named. Binding seen in cells or lysates may run through a third protein. Tags and fused reporters may be left off the sequences shown.

Target: T1, nYFP-tagged TMED9 (not stated (cDNA from INS1 cells)) (UniProt Q5I0E7)
T1 sequence: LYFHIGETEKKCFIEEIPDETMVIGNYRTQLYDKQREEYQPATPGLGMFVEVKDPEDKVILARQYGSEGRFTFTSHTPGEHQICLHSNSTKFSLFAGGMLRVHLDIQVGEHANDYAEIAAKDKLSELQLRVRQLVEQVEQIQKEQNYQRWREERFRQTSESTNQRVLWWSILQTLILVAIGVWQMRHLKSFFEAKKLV
Test: split reporter; HEK-293T cells transfected with 200 ng nYFP- and 200 ng cYFP-tagged constructs, 48 h, then 30 °C for 6 h; fluorescence by flow cytometry or confocal imaging of live cells

B1: proinsulin tagged with C-terminal segment of YFP (cYFP) (protein, UniProt P01322 25-110)
chain: FVKQHLCGPHLVEALYLVCGERGFFYTPKSRREVEDPQVPQLELGGGPEAGDLQTLALEVARQKRGIVDQCCTSICSLYQLENYCN
B1 was tested, and the binding was “no binding”.
